The test concerns the target chicken ZP4 ZP-N1 domain, 6His-tagged (chicken). As to the kind of experiment: pull-down; conditioned medium of cells co-expressing the 6His- and Myc-tagged forms, Ni-NTA beads, 20 mM Na-HEPES pH 7.8, 100 mM NaCl, 10 mM imidazole, 1 h at RT; PNGase F, immunoblot with anti-5His and anti-Myc.

From paper PMC6626044, “Molecular basis of egg coat cross-linking sheds light on ZP1-associated female infertility” (Nature Communications, 2019) come the findings set out here.

These are yes or no findings as the source states them, for the method shown. Binding seen in cells or lysates may run through a third protein. Binding calls can cover weak binding; strength is not graded here.

For the substance “chicken ZP4 ZP-N1 domain, Myc-tagged (from UniProt A0A8V0ZLW5) (domain or fragment)”, the binding entry is on record as “binds”.
